From patent US8710008B2 (Universitetet I Oslo, priority 2008, dated 2014)

Assay: general procedure: solution-phase peptide synthesis; EDC hydrochloride, HOBt hydrate, DIPEA
Conditions: for cyclisation yield: cyclisation step
[1] = late stage modification step, trifluoroacetate

Substance | step yield (coupling step) | other results
N-tert-butoxycarbonyl L-prolyl L-prolyl O-allyl L-seryl L-valyl L-valyl O-allyl L-seryl glycine methyl ester | 73% | –
Methyl 2-((3S,6S,9S,12S, E)-12-(tert-butoxycarbonylamino)-6,9-diisopropyl-5,8,11-trioxo-1,14-dioxa-4,7,10-triazacyclo octadec-16-ene-carboxamido)-acetate | – | cyclisation yield: 42%
N-tert-butoxycarbonyl L-prolyl L-prolyl O-benzyl L-seryl L-valyl L-valyl glycyl glycine methyl ester | 78% | –
N-tert-butoxycarbonyl O-allyl L-seryl L-valyl L-valyl O-allyl L-seryl glycine methyl ester | 89% | –
N-tert-butoxycarbonyl L-prolyl L-prolyl O-allyl L-seryl L-valyl L-valine methyl ester | 93% | –
(3S,6S,9S,12S,E)-6,9-diisopropyl-3-(2-methoxy-2-oxoethyl carbamoyl)-5,8,11-trioxo-1,14-dioxa-4,7,10-triazacycloocta dec-16-en-12-aminium 2,2,2-trifluoroacetate | – | step yield (late stage modification step, TFA salt): 95%
Methyl 2-((3S,6S,12S,E)-12-(tert-butoxycarbonylamino)-6-isopropyl-9,9-dimethyl-5,8,11-trioxo-1,14-dioxa-4,7,10-triaza cyclooctadec-16-enecarboxamido)acetate | – | cyclisation yield: 52%
N-tert-butoxycarbonyl O-benzyl L-seryl L-valyl L-valyl glycyl glycine methyl ester | 78% | –
O-benzyl L-seryl L-valyl glycyl glycine methyl ester trifluoroacetate | – | step yield [1]: 92%
N-tert-butoxycarbonyl O-allyl L-seryl α,α-dimethylglycyl L-valyl O-allyl L-seryl glycine methyl ester | 73% | –
O-allyl L-seryl L-valyl L-valyl O-allyl L-seryl glycine methyl ester trifluoroacetate | – | step yield [1]: 96%
(3S,6S,12S,E)-6-isopropyl-3-(2-methoxy-2-oxoethylcarbamoyl)-9,9-dimethyl-5,8,11-trioxo-1,14-dioxa-4,7,10-triazacyclo octadec-16-en-12-aminium 2,2,2-trifluoroacetate | – | step yield (late stage modification step): 71%
